{
  "source": "PubChem BioAssay AID2417",
  "about": "(National Center for Advancing Translational Sciences (NCATS), 2010)",
  "note": "In all, about 140,000 compounds went through this assay and about 4,300 (3.1%) were called active. The shares of active, inactive and inconclusive entries below differ from those in the screen.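 The calls were made as follows: active = readout at or below -70, meaning at least 70% loss of cells showing the perinucleolar compartment, a nuclear body marking cancer cells; inconclusive = readout between -30 and a set limit; inactive = the rest.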",
  "data": [
    {"test": "High Content Assay for Compounds that inhibit the Assembly of the Perinucleolar Compartment;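 also: plate controls were DMSO wells for no effect and camptothecin positive control wells for full effect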", "details": "PC3M PTB-GFP, PNC prevalence imaging, 16 h; at 10 µM; stronger effect = lower value", "method_in_brief": "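Read-out is percentage of cells bearing a perinucleolar compartment, from automated 20x imaging of fixed, Hoechst-stained PC3M PTB-GFP cells. Cells were seeded 4 h, then exposed 16 h to compound (23 nl of library stock) in duplicate plates.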", "values": [
      {"smiles": "COC(=O)c1cc(OC)c(OC)cc1NC(=S)N1CCN(c2ccccc2)CC1", "activity change (PNC), negative = inhibition": "inactive: 37.5%"},
      {"smiles": "CCOC(=O)N1CCC(NC(=O)CC(NS(=O)(=O)c2ccc(Cl)cc2)c2ccco2)CC1", "note": "(centres undefined)", "activity change (PNC), negative = inhibition": "inconclusive: -66.7%"},
      {"smiles": "O=C(NCC1CCCO1)c1cc(-c2ccccc2)on1", "note": "(centres undefined)", "activity change (PNC), negative = inhibition": "inconclusive: -43.8%"},
      {"smiles": "CSc1ccc(Cn2nnc(C(=O)NCc3ccccc3)c2N)cc1", "activity change (PNC), negative = inhibition": "inactive: -12.9%"},
      {"smiles": "CCOC(=O)c1cc(C(C)(C)C)oc1CN", "activity change (PNC), negative = inhibition": "inconclusive: -48.9%"},
      {"smiles": "C=C(C)Cn1c(SCC(=O)N/N=C/c2cccc(O)c2)nc2ccccc2c1=O", "activity change (PNC), negative = inhibition": "inactive: -3.25%"},
      {"smiles": "O=c1[nH]c2cc3c(cc2cc1C(c1nnnn1Cc1ccccc1)N1CCCCCC1)OCCO3", "note": "(centres undefined)", "activity change (PNC), negative = inhibition": "inactive: 1.6%"},
      {"smiles": "CCC1S/C(=C(\\C#N)C(=O)NCc2ccco2)N(c2ccc(Br)cc2)C1=O", "note": "(centres undefined)", "activity change (PNC), negative = inhibition": "inconclusive: -57.1%"},
      {"smiles": "Cc1cc(NS(=O)(=O)c2ccc(NC(=O)COc3ccccc3Cl)cc2)no1", "activity change (PNC), negative = inhibition": "inactive: 25.6%"},
      {"smiles": "N#CC1=C(N)C(C#N)(C#N)C(c2ccncc2)C2CN(C(=O)OCc3ccccc3)CC=C12", "note": "(centres undefined)", "activity change (PNC), negative = inhibition": "active: -119%"},
      {"smiles": "COc1ccc(CCn2c(N)c(S(=O)(=O)c3cccs3)c3nc4ccccc4nc32)cc1OC", "activity change (PNC), negative = inhibition": "inconclusive: -31.1%"},
      {"smiles": "Cc1ccccc1C(=O)Nc1nc(=S)ss1", "activity change (PNC), negative = inhibition": "inconclusive: -50.5%"},
      {"smiles": "O=C(Cn1c(COc2ccccc2)nc2ccccc21)Nc1cc(Cl)ccc1Cl", "activity change (PNC), negative = inhibition": "inactive: 37.9%"},
      {"smiles": "O=C(NCc1ccco1)c1nc2nc(-c3cccs3)cc(C(F)(F)F)n2n1", "activity change (PNC), negative = inhibition": "inactive: 6.89%"},
      {"smiles": "COC(=O)C(C)NC(=O)C(C)NC(=O)OCc1ccccc1", "note": "(centres undefined)", "activity change (PNC), negative = inhibition": "inactive: -9.29%"},
      {"smiles": "C=CCn1c(=NC(=O)c2ccccc2[N+](=O)[O-])sc2cc(S(C)(=O)=O)ccc21", "activity change (PNC), negative = inhibition": "inconclusive: -60%"},
      {"smiles": "CCCCCC(=O)NNC(=O)c1ccc(-c2ccccc2)cc1", "activity change (PNC), negative = inhibition": "inactive: -3.73%"},
      {"smiles": "Nn1c(Cc2ccccc2F)nnc1SCC(=O)N1CC(=O)Nc2ccccc21", "activity change (PNC), negative = inhibition": "active: -100%"},
      {"smiles": "Cc1ccc(CCNC(=O)C2CCCN(S(=O)(=O)c3cccc4nsnc34)C2)cc1", "note": "(centres undefined)", "activity change (PNC), negative = inhibition": "inconclusive: -42.7%"},
      {"smiles": "CCOC(=O)Cn1c(=O)c2c(nc(Br)n2Cc2ccc(Cl)cc2)n(C)c1=O", "activity change (PNC), negative = inhibition": "inactive: 0.753%"},
      {"smiles": "COc1ccc(Cn2nnnc2C(c2ccccc2)N2CCN(C3CCCC3)CC2)cc1", "note": "(centres undefined)", "activity change (PNC), negative = inhibition": "inconclusive: -53.1%"},
      {"smiles": "COc1ccccc1-n1cnnc1SC(C)C(=O)Nc1cccc([N+](=O)[O-])c1", "note": "(centres undefined)", "activity change (PNC), negative = inhibition": "inactive: 3%"},
      {"smiles": "COc1cccc(CNC(=O)Cn2cc3c(n2)CCCC3)c1", "activity change (PNC), negative = inhibition": "inconclusive: -38.2%"},
      {"smiles": "COc1cc(/C=N/NC(=O)CCc2c(C)n[nH]c2C)cc(OC)c1OC", "activity change (PNC), negative = inhibition": "inconclusive: -45.9%"},
      {"smiles": "CCOc1ccc(CSCCNC(=S)Nc2ccccc2)cc1", "activity change (PNC), negative = inhibition": "active: -92%"},
      {"smiles": "CC(=O)Nc1ccc(NC(=O)CN2CCN(c3cccc(C(F)(F)F)c3)CC2)cc1", "activity change (PNC), negative = inhibition": "inconclusive: -39.9%"},
      {"smiles": "Cc1cc(C(C)(C)C)cc(C)c1CC1=NCCN1", "activity change (PNC), negative = inhibition": "inconclusive: -44.9%"},
      {"smiles": "CC(C)CC(=O)CN1C(=O)C2(OCCO2)c2ccccc21", "activity change (PNC), negative = inhibition": "inconclusive: -45.4%"},
      {"smiles": "Cc1ccc(NC(=S)N(CCCN2CCOCC2)Cc2ccccn2)cc1Cl", "activity change (PNC), negative = inhibition": "inconclusive: -41.6%"},
      {"smiles": "O=C(Nc1ccc(F)cc1)C1C(c2ccccc2)C1(Cl)Cl", "note": "(centres undefined)", "activity change (PNC), negative = inhibition": "inconclusive: -47.5%"},
      {"smiles": "O=C(NNC(=O)C1[C@H]2CCCC[C@@H]12)NC1CCCCC1", "note": "(some centres undefined)", "activity change (PNC), negative = inhibition": "inactive: 39.3%"},
      {"smiles": "CC(C(=O)Nc1c2c(cc3c1CCC3)CCC2)N1CCCC1", "note": "(centres undefined)", "activity change (PNC), negative = inhibition": "inconclusive: -73.9%"},
      {"smiles": "CC12CCC(C(=O)Nc3ccccc3)(C/C1=N\\O)C2(C)C", "note": "(centres undefined)", "activity change (PNC), negative = inhibition": "inconclusive: -70.8%"},
      {"smiles": "COc1ccc(S(=O)(=O)NCCSCc2ccco2)cc1", "activity change (PNC), negative = inhibition": "inconclusive: -38.9%"},
      {"smiles": "CCN(CCCCOC(=O)c1ccc(OC)c(OC)c1)C(C)Cc1ccc(OC)cc1", "note": "(centres undefined)", "activity change (PNC), negative = inhibition": "inconclusive: -38.5%"},
      {"smiles": "CCOc1ccccc1OCCOCCN1CC(C)OC(C)C1", "note": "(centres undefined)", "activity change (PNC), negative = inhibition": "active: -87.4%"},
      {"smiles": "Cc1ccc2occ(CN3CCN(Cc4ccccc4)CC3)c(=O)c2c1", "activity change (PNC), negative = inhibition": "inactive: 52.2%"},
      {"smiles": "COC(=O)c1sc2ccccc2c1NC(=O)c1coc2ccccc2c1=O", "activity change (PNC), negative = inhibition": "inconclusive: -35.1%"},
      {"smiles": "CC(=O)OC(/C(O)=C(\\C#N)c1nc2ccccc2[nH]1)c1ccccc1", "note": "(centres undefined)", "activity change (PNC), negative = inhibition": "inconclusive: -45.3%"},
      {"smiles": "CCOc1cc(C)c(Cl)cc1S(=O)(=O)N(CC)CC", "activity change (PNC), negative = inhibition": "inconclusive: -34.4%"},
      {"smiles": "CC(=O)c1ccc(OC(C)C)c(CSc2nc(O)cc(=O)[nH]2)c1", "activity change (PNC), negative = inhibition": "inactive: 12.7%"},
      {"smiles": "COC(=O)NNC(=O)c1ccc(C)cc1", "activity change (PNC), negative = inhibition": "inconclusive: -63%"},
      {"smiles": "Cc1cc(SCC(=O)NCCN2C(=O)CSC2=O)nc2c(C)cccc12", "activity change (PNC), negative = inhibition": "inconclusive: -43.6%"},
      {"smiles": "COC(=O)c1c(C)oc2ccc(OC(=O)c3cccs3)cc12", "activity change (PNC), negative = inhibition": "inactive: 24.7%"},
      {"smiles": "COc1ccc(-c2nnc(OCc3nc4ccccc4n3C)c3ccccc23)cc1", "activity change (PNC), negative = inhibition": "inconclusive: -35.6%"},
      {"smiles": "CC(NC(=O)c1ccco1)C1COc2ccccc2O1", "note": "(centres undefined)", "activity change (PNC), negative = inhibition": "inconclusive: -31.9%"},
      {"smiles": "O=C(Nc1ccccc1)Nc1ccc(S(=O)(=O)N2CCCCC2)cc1", "activity change (PNC), negative = inhibition": "inconclusive: -37.1%"},
      {"smiles": "Nc1ccc(N2CCN(C(=O)c3ccco3)CC2)cc1", "activity change (PNC), negative = inhibition": "inconclusive: -35.7%"},
      {"smiles": "CCCCSC(=S)NC1CCS(=O)(=O)C1", "note": "(centres undefined)", "activity change (PNC), negative = inhibition": "inconclusive: -61.9%"},
      {"smiles": "COc1ccc(-c2ccc(/C=C3/C(=N)N4C=CSC4=NC3=O)o2)c([N+](=O)[O-])c1", "activity change (PNC), negative = inhibition": "inconclusive: -78%"},
      {"smiles": "Cc1ccc(-c2nnc(CSc3nncn3N)o2)cc1", "activity change (PNC), negative = inhibition": "inactive: -20.6%"},
      {"smiles": "COc1ccc(NC(=O)Nc2ccc(N(C)C)cc2)cc1", "activity change (PNC), negative = inhibition": "inactive: 34.7%"},
      {"smiles": "O=C(Nc1cccc(F)c1)c1ccc(-c2ccccc2Cl)o1", "activity change (PNC), negative = inhibition": "inactive: -0.856%"},
      {"smiles": "O=C(O)CC(Cn1[nH]nnc1=S)c1ccccc1", "note": "(centres undefined)", "activity change (PNC), negative = inhibition": "inconclusive: -48%"},
      {"smiles": "COc1ccc(CC(=O)Nc2ccc3nc(C)sc3c2)cc1OC", "activity change (PNC), negative = inhibition": "inconclusive: -44.6%"},
      {"smiles": "COc1cc2nc(SCc3ccc(C(F)(F)F)cc3)n(Cc3cccs3)c(=N)c2cc1OC", "activity change (PNC), negative = inhibition": "inconclusive: -56.3%"},
      {"smiles": "Cc1nc(=O)c(-c2ccccc2)c(C)n1-c1cccc(C(=O)O)c1", "activity change (PNC), negative = inhibition": "active: -101%"},
      {"smiles": "CC1=C(C(=O)OCC(C)C)C(c2ccccc2Cl)NC(=O)N1C", "note": "(centres undefined)", "activity change (PNC), negative = inhibition": "inactive: 13.2%"},
      {"smiles": "O=C(CN1CCOCC1)Nc1ccccc1", "activity change (PNC), negative = inhibition": "inconclusive: -65.5%"}
    ]}
  ]
}
